The assay has as its system CD8F1 mice, subcutaneous mammary adenocarcinoma, T/C%. Briefly: NCI In Vivo Anticancer Drug Screen. Data for tumor model Mammary Adenocarcinoma CD8F1 (subcutaneous) in CD8F1. Conditions: higher T/C = larger tumour. Summed up:
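Compound-treated versus vehicle-treated mice with transplantable tumors; survival or tumor size compared as T/C.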

The list shows only some results of the screen, not a fair sample: it is rich in T/C values a quarter to a half above the control, in often repeated tests (any T/C) and in doses without a T/C. Further doses and runs are listed elsewhere. T/C is the treated group as % of the vehicle group. Schedule codes are those of the source, read here as Q, the interval in days (D) or hours (H), X, the number of doses. Some doses were run more than once; the values are given in rising order. Some T/C values carry the count of animals alive at the toxicity check (mostly the fifth day); without a count, all were alive then. Some doses have a count of surviving animals in place of a T/C: the source files T/C as zero there, which appears to mark a toxic dose or a test without result, not a measured value. Counts of survivors are from the toxicity check (mostly the fifth day) where no day follows; animals may have died later.

Take `Cc1ccoc1`: where the note is “T/C endpoint: median tumor weight change, dose: 333.3 mg/kg/injection, schedule: Q03HX003 (ip), vehicle: saline with Tween-80”, the survivor count is recorded as 0 of 10 on day 25.

With `COC1=CC(=O)C(OC)=C(OC)C1=O`, for the setting “T/C endpoint: median tumor weight (est.), dose: 200.0 mg/kg/injection, schedule: Q07DX005 (ip), vehicle: saline with Tween-80”, the survivor count is recorded as 6 of 10 on day 30.

Take `Cc1cc(N(CC(C)Br)CC(C)Br)ccc1N=Nc1ccccc1C(=O)O` (stereo unspecified): for the setting “T/C endpoint: median tumor weight (est.), dose: 50.0 mg/kg/injection, schedule: Q07DX005 (ip), vehicle: saline with Tween-80”, the survivor count is 0 of 10 on day 30.

As to `COc1nc(C(Cl)(Cl)Cl)c(Cl)c(OC)c1Cl`, the T/C is, setting by setting: (T/C endpoint: median tumor weight change, dose: 62.5 mg/kg/injection, schedule: Q01DX001 (ip), vehicle: Klucel (hydroxypropylcellulose) (HPC), evaluated on day 29) 130 % of control; (T/C endpoint: median tumor weight change, dose: 125.0 mg/kg/injection, schedule: Q01DX001 (ip), vehicle: Klucel (hydroxypropylcellulose) (HPC), evaluated on day 35) 133 % of control. In addition, the survivor count was 4 of 10 on day 27 (T/C endpoint: median tumor weight change, dose: 200.0 mg/kg/injection, schedule: Q01DX005 (ip), vehicle: Klucel (hydroxypropylcellulose) (HPC)); 0 of 10 on day 27 and 3 of 10 on day 22 (T/C endpoint: median tumor weight change, dose: 300.0 mg/kg/injection, schedule: Q01DX005 (ip), vehicle: Klucel (hydroxypropylcellulose) (HPC)).

With `CC1=C[S+](c2ccccc2)c2cccc3cc4ccccc4c1c23` (stereo unspecified), the T/C (T/C endpoint: median tumor weight change, dose: 1.25 mg/kg/injection, schedule: Q01DX001 (ip), vehicle: saline with Tween-80, evaluated on day 37) is 134 % of control and the T/C (T/C endpoint: median tumor weight change, dose: 2.5 mg/kg/injection, schedule: Q01DX001 (ip), vehicle: saline with Tween-80, evaluated on day 37) is 134 % of control [9 of 10 alive on day 37]. In addition, the survivor count is 3 of 10 on day 29 (T/C endpoint: median tumor weight change, dose: 20.0 mg/kg/injection, schedule: Q01DX001 (ip), vehicle: saline with Tween-80); 0 of 10 on day 29 (T/C endpoint: median tumor weight change, dose: 40.0 mg/kg/injection, schedule: Q01DX001 (ip), vehicle: saline with Tween-80); 0 of 10 on day 29 (T/C endpoint: median tumor weight change, dose: 80.0 mg/kg/injection, schedule: Q01DX001 (ip), vehicle: saline with Tween-80).

For `C[C@@]1(CO)[C@H](O)CC[C@@]2(C)[C@H]1CC[C@H]1C[C@@H]3C[C@@]12CC[C@@]3(O)COC(=O)CN`, the survivor count was 6 of 10 on day 40 (T/C endpoint: median tumor weight change, dose: 150.0 mg/kg/injection, schedule: Q01DX001 (ip), vehicle: Klucel (hydroxypropylcellulose) (HPC)); 0 of 10 on day 28 and 1 of 10 on day 40 (T/C endpoint: median tumor weight change, dose: 300.0 mg/kg/injection, schedule: Q01DX001 (ip), vehicle: Klucel (hydroxypropylcellulose) (HPC)); 0 of 10 on day 28 (T/C endpoint: median tumor weight change, dose: 600.0 mg/kg/injection, schedule: Q01DX001 (ip), vehicle: Klucel (hydroxypropylcellulose) (HPC)); 0 of 10 on day 28 (T/C endpoint: median tumor weight change, dose: 1200.0 mg/kg/injection, schedule: Q01DX001 (ip), vehicle: Klucel (hydroxypropylcellulose) (HPC)); 0 of 10 on day 28 (T/C endpoint: median tumor weight change, dose: 2400.0 mg/kg/injection, schedule: Q01DX001 (ip), vehicle: Klucel (hydroxypropylcellulose) (HPC)). Further, where the note is “T/C endpoint: median tumor weight change, dose: 500.0 micrograms/kg/injection, schedule: Q01DX001 (ip), vehicle: saline + alcohol, evaluated on day 29”, the T/C was 134 % of control.

For `O=C1C(O)=C(c2ccccc2)C(=O)C(O)=C1c1ccccc1`, the survivor count is 1 of 10 on day 32 (T/C endpoint: median tumor weight change, dose: 250.0 mg/kg/injection, schedule: Q01DX001 (ip), vehicle: saline with Tween-80) and 0 of 10 on day 32 (T/C endpoint: median tumor weight change, dose: 500.0 mg/kg/injection, schedule: Q01DX001 (ip), vehicle: saline with Tween-80).

On to `COc1cc2cc(c1Cl)N1CC(O)C(C)(O)C(=O)NC(C)C(=O)OC(CC1=O)C1(C)OC1C(C)C1CC(O)(NC(=O)O1)C(OC)/C=C\C=C(\C)C2OC` (stereo unspecified), for which, under “T/C endpoint: median tumor weight change, dose: 32.0 micrograms/kg/injection, schedule: Q01DX001 (ip), vehicle: distilled water + alcohol, evaluated on day 31”, the T/C is 143 % of control. Moreover, the survivor count (T/C endpoint: median tumor weight change, dose: 128.0 micrograms/kg/injection, schedule: Q01DX001 (ip), vehicle: distilled water + alcohol) was 0 of 10 on day 31.

Turning to `Nc1nc(N)c2c(ccc3c2ccn3Cc2cccc([N+](=O)[O-])c2)n1`, the T/C is 117 % of control (T/C endpoint: median tumor weight change, dose: 7.8 mg/kg/injection, schedule: Q01DX001 (ip), vehicle: saline with Tween-80, evaluated on day 29); 97 % of control (T/C endpoint: median tumor weight change, dose: 7.8 mg/kg/injection, schedule: Q01DX001 (ip), vehicle: saline with Tween-80, evaluated on day 30); 44 % of control (T/C endpoint: median tumor weight change, dose: 7.8 mg/kg/injection, schedule: Q01DX001 (ip), vehicle: saline with Tween-80, evaluated on day 34); 107 % of control (T/C endpoint: median tumor weight change, dose: 7.8 mg/kg/injection, schedule: Q01DX001 (ip), vehicle: saline with Tween-80, evaluated on day 36); 128 % of control (T/C endpoint: median tumor weight change, dose: 15.5 mg/kg/injection, schedule: Q01DX001 (ip), vehicle: saline with Tween-80, evaluated on day 29); 54 % of control (T/C endpoint: median tumor weight change, dose: 15.5 mg/kg/injection, schedule: Q01DX001 (ip), vehicle: saline with Tween-80, evaluated on day 30). The T/C runs as follows: (T/C endpoint: median tumor weight change, dose: 15.5 mg/kg/injection, schedule: Q01DX001 (ip), vehicle: saline with Tween-80, evaluated on day 34) 50 % of control; (T/C endpoint: median tumor weight change, dose: 15.5 mg/kg/injection, schedule: Q01DX001 (ip), vehicle: saline with Tween-80, evaluated on day 36) 39 and 96 % of control; (T/C endpoint: median tumor weight change, dose: 31.0 mg/kg/injection, schedule: Q01DX001 (ip), vehicle: saline with Tween-80, evaluated on day 28) 47 % of control; (T/C endpoint: median tumor weight change, dose: 31.0 mg/kg/injection, schedule: Q01DX001 (ip), vehicle: saline with Tween-80, evaluated on day 29) 84 % of control; (T/C endpoint: median tumor weight change, dose: 31.0 mg/kg/injection, schedule: Q01DX001 (ip), vehicle: saline with Tween-80, evaluated on day 30) 86 % of control; (T/C endpoint: median tumor weight change, dose: 31.0 mg/kg/injection, schedule: Q01DX001 (ip), vehicle: saline with Tween-80, evaluated on day 34) 52 % of control. Moreover, the T/C is 40 [9 of 10 alive on day 36] and 90 % of control (T/C endpoint: median tumor weight change, dose: 31.0 mg/kg/injection, schedule: Q01DX001 (ip), vehicle: saline with Tween-80, evaluated on day 36); 16 % of control [9 of 10 alive on day 28] (T/C endpoint: median tumor weight change, dose: 62.0 mg/kg/injection, schedule: Q01DX001 (ip), vehicle: saline with Tween-80, evaluated on day 28); 41 % of control [7 of 10 alive on day 29] (T/C endpoint: median tumor weight change, dose: 62.0 mg/kg/injection, schedule: Q01DX001 (ip), vehicle: saline with Tween-80, evaluated on day 29); 47 % of control [9 of 10 alive on day 30] (T/C endpoint: median tumor weight change, dose: 62.0 mg/kg/injection, schedule: Q01DX001 (ip), vehicle: saline with Tween-80, evaluated on day 30); 39 % of control (T/C endpoint: median tumor weight change, dose: 62.0 mg/kg/injection, schedule: Q01DX001 (ip), vehicle: saline with Tween-80, evaluated on day 34); 23 % of control (T/C endpoint: median tumor weight change, dose: 62.0 mg/kg/injection, schedule: Q01DX001 (ip), vehicle: saline with Tween-80, evaluated on day 36). In addition, where the note is “T/C endpoint: median tumor weight change, dose: 124.0 mg/kg/injection, schedule: Q01DX001 (ip), vehicle: saline with Tween-80”, the survivor count is listed as 0 of 10 on day 30, 3 of 10 on day 29, 3 of 10 on day 36, 4 of 10 on day 34, 6 of 10 on day 36.

As to `CC(=O)OCC1OC([S-])C(OC(C)=O)C(OC(C)=O)C1OC(C)=O.CC[PH+](CC)CC.CC[PH+](CC)CC.[Au].[Au]` (stereo unspecified), the survivor count (T/C endpoint: median tumor weight change, dose: 25.0 mg/kg/injection, schedule: Q01DX001 (ip), vehicle: Klucel (hydroxypropylcellulose) (HPC)) is 0 of 10 on day 31; the survivor count (T/C endpoint: median tumor weight change, dose: 50.0 mg/kg/injection, schedule: Q01DX001 (ip), vehicle: Klucel (hydroxypropylcellulose) (HPC)) is listed as 1 of 10 on day 31; the survivor count (T/C endpoint: median tumor weight change, dose: 100.0 mg/kg/injection, schedule: Q01DX001 (ip), vehicle: Klucel (hydroxypropylcellulose) (HPC)) was 4 of 10 on day 31.

On to `NC(=O)NO`, for which the T/C (T/C endpoint: median tumor weight (est.), dose: 50.0 mg/kg/injection, schedule: Q07DX005 (ip), vehicle: saline, evaluated on day 30) was 133 % of control.

With `COC(=O)[C@@]12OC[C@]34[C@H]([C@@H](O)[C@@H]1O)[C@@]1(C)CC(=O)C(O)=C(C)[C@@H]1C[C@H]3OC(=O)[C@H](OC(=O)/C=C(\C)C(C)C)[C@@H]24`, the survivor count is, setting by setting: (T/C endpoint: median tumor weight (est.), dose: 2.0 mg/kg/injection, schedule: Q07DX005 (ip), vehicle: saline + alcohol) 6 of 10; (T/C endpoint: median tumor weight (est.), dose: 4.0 mg/kg/injection, schedule: Q07DX005 (ip), vehicle: saline + alcohol) 3 of 10.

For `CN1CCc2c(c3ccccc3c3ccccc23)C1`, the survivor count is, setting by setting: (T/C endpoint: median tumor weight change, dose: 200.0 mg/kg/injection, schedule: Q01DX001 (ip), vehicle: Klucel (hydroxypropylcellulose) (HPC)) 0 of 10 on day 28; (T/C endpoint: median tumor weight change, dose: 250.0 mg/kg/injection, schedule: Q01DX001 (ip), vehicle: Klucel (hydroxypropylcellulose) (HPC)) 2 of 10 on day 36; (T/C endpoint: median tumor weight change, dose: 500.0 mg/kg/injection, schedule: Q01DX001 (ip), vehicle: Klucel (hydroxypropylcellulose) (HPC)) 0 of 10 on day 36.

Consider `Nc1nc2nc[nH]c2c(=O)[nH]1`, for which the survivor count (T/C endpoint: median tumor weight (est.), dose: 400.0 mg/kg/injection, schedule: Q07DX005 (ip), vehicle: suspension in saline) was 0 of 10 on day 30.

Source of the values: PubChem BioAssay AID220 (DTP/NCI, 2004).
